Data as given in PubChem BioAssay AID330 (DTP/NCI, 2004).
The list is a part of this screen's results and no random one: it gathers tests that were run many times, whatever their T/C, doses with no T/C, and many T/C values between a quarter and a half above the control. Further doses and runs are listed elsewhere. T/C is the treated group as % of the vehicle group. Some doses have a count of surviving animals in place of a T/C: the source files T/C as zero there, which appears to mark a toxic dose or a test without result, not a measured value. Some doses without a T/C left all or most animals alive at the check, yet need not have been tolerated: the source hardly ever lists a survival T/C far under the control, and the zero likely stands for such cases as well. Counts of survivors are from the toxicity check (mostly the fifth day) where no day follows; animals may have died later. Schedules are NCI's codes, read here as Q, the interval in days (D) or hours (H), X, the number of doses. Some doses were run more than once; their values stand side by side, smallest first. Where survival is the endpoint, this PubChem deposit counts one and a half times the control or more as active, and values a quarter to a half above the control carry no call in these data; other NCI protocols may use other cut-offs. Some T/C values are followed by the survivors on the day toxicity was checked, most often the fifth; where none is given, no animal had died by that day.

Tested on: P388 leukemia ip, CD2F1 mice, survival T/C
Experiment: NCI In Vivo Anticancer Drug Screen. Data for tumor model P388 Leukemia (intraperitoneal) in CD2F1 (CDF1) mice
Details: T/C endpoint: median survival time, higher T/C = longer survival
[1] = dose: 50.0 mg/kg/injection, schedule: Q01DX009 (ip), vehicle: saline with Tween-80
[2] = dose: 200.0 mg/kg/injection, schedule: Q01DX009 (ip), vehicle: saline with Tween-80
[3] = dose: 400.0 mg/kg/injection, schedule: Q04DX003 (ip), vehicle: saline with Tween-80
[4] = dose: 240.0 mg/kg/injection, schedule: Q01DX005 (ip), vehicle: saline with Tween-80
[5] = dose: 25.0 mg/kg/injection, schedule: Q01DX005 (ip), vehicle: saline with Tween-80
[6] = dose: 50.0 mg/kg/injection, schedule: Q01DX005 (ip), vehicle: saline with Tween-80
[7] = dose: 100.0 mg/kg/injection, schedule: Q01DX005 (ip), vehicle: saline with Tween-80
[8] = dose: 200.0 mg/kg/injection, schedule: Q01DX005 (ip), vehicle: saline with Tween-80
[9] = dose: 100.0 mg/kg/injection, schedule: Q01DX005 (ip), vehicle: Klucel (hydroxypropylcellulose) (HPC)
[10] = dose: 200.0 mg/kg/injection, schedule: Q01DX005 (ip), vehicle: Klucel (hydroxypropylcellulose) (HPC)
[11] = dose: 400.0 mg/kg/injection, schedule: Q01DX009 (ip), vehicle: saline with Tween-80

ClCCc1nc(C(Cl)(Cl)Cl)nc(C(Cl)(Cl)Cl)n1
survivor count (dose: 100.0 mg/kg/injection, schedule: Q04DX002 (ip), vehicle: Klucel (hydroxypropylcellulose) (HPC)): 0 of 6
survivor count (dose: 200.0 mg/kg/injection, schedule: Q04DX002 (ip), vehicle: Klucel (hydroxypropylcellulose) (HPC)): 0 of 6
survivor count (dose: 400.0 mg/kg/injection, schedule: Q04DX002 (ip), vehicle: Klucel (hydroxypropylcellulose) (HPC)): 0 of 6

CC(=O)O[C@@H]1[C@@H](O)C2=C3[C@]4(C)[C@@H]1C(C)(C)C(=O)C[C@@H]4[C@]3(O)[C@H](OC(C)=O)[C@@]1(C[C@@H]1C)C2=O
T/C (dose: 50.0 mg/kg/injection, schedule: Q01DX009 (ip), vehicle: other): 132 % of control
T/C [1]: 126 % of control
survivor count (dose: 100.0 mg/kg/injection, schedule: Q01DX009 (ip), vehicle: other): 5 of 6
survivor count (dose: 100.0 mg/kg/injection, schedule: Q01DX009 (ip), vehicle: saline with Tween-80): 3 of 6

COc1ccc(CC(N)c2nn[nH]n2)cc1 (stereo not drawn)
survivor count [2]: 0 of 6

CCOc1ccn(C2C=CC(=O)O2)c(=O)n1 (stereo not drawn)
survivor count (dose: 50.0 mg/kg/injection, schedule: Q01DX005 (ip), vehicle: saline): 2 of 6
survivor count (dose: 100.0 mg/kg/injection, schedule: Q01DX005 (ip), vehicle: saline): 3 of 6
survivor count (dose: 200.0 mg/kg/injection, schedule: Q01DX005 (ip), vehicle: saline): 0 of 6

Oc1ccc(Br)cc1C=NCCS
survivor count (dose: 60.0 mg/kg/injection, schedule: Q01DX005 (ip), vehicle: saline with Tween-80): 6 of 6
survivor count (dose: 120.0 mg/kg/injection, schedule: Q01DX005 (ip), vehicle: saline with Tween-80): 6 of 6

Cc1nn(C(=S)S)c(C)c1N=Nc1ccccc1C(F)(F)F
T/C (dose: 12.5 mg/kg/injection, schedule: Q04DX002 (ip), vehicle: saline with Tween-80): 129 % of control
survivor count (dose: 100.0 mg/kg/injection, schedule: Q04DX002 (ip), vehicle: saline with Tween-80): 5 of 5

CC1(C)c2ccccc2Nc2ccccc21
survivor count [3]: 5 of 6

CNP1(NC)=N[P@@](NC)(N2CC2)=NP(NC)(N2CC2)=N1 (stereo partly drawn)
T/C (dose: 3.75 mg/kg/injection, schedule: Q01DX005 (ip), vehicle: saline): 125 and 148 % of control
survivor count (dose: 60.0 mg/kg/injection, schedule: Q01DX005 (ip), vehicle: saline): 6 of 6
survivor count (dose: 120.0 mg/kg/injection, schedule: Q01DX005 (ip), vehicle: saline): 6 of 6
survivor count (dose: 240.0 mg/kg/injection, schedule: Q01DX005 (ip), vehicle: saline): 1 of 6

COC(=O)c1nc(N)nc(C(=O)OC)c1C(=O)c1ccc(Cl)cc1Cl
survivor count [4]: 0 of 6

Cc1ccc(/C=C/C(=O)C(CN(C)C)CN(C)C)cc1C
survivor count [5]: 0 of 6
survivor count [6]: 0 of 6
survivor count [7]: 0 of 6
survivor count [8]: 0 of 6

Cc1ccc(-n2c(C)nc3[nH]cc(C)c3c2=N)cc1
survivor count (dose: 50.0 mg/kg/injection, schedule: Q01DX005 (ip), vehicle: Klucel (hydroxypropylcellulose) (HPC)): 2 of 6
survivor count [9]: 0 of 6
survivor count [10]: 0 of 6

COc1cc(CC2c3cc(OC)c(OC)cc3CCN2C)c(Oc2cc3c(cc2OC)-c2c(O)c(OC)cc4c2C(C3)N(C)CC4)cc1OC (stereo not drawn)
survivor count (dose: 50.0 mg/kg/injection, schedule: Q04DX003 (ip), vehicle: saline with Tween-80): 6 of 6
survivor count (dose: 100.0 mg/kg/injection, schedule: Q04DX003 (ip), vehicle: saline with Tween-80): 6 of 6

Clc1cc(Cl)c(C[N+]23CN4CN(CN(C4)C2)C3)cc1Cl
T/C [1]: 130 % of control
T/C (dose: 100.0 mg/kg/injection, schedule: Q01DX009 (ip), vehicle: saline with Tween-80, evaluated on day 20): 140 % of control
T/C (dose: 100.0 mg/kg/injection, schedule: Q01DX009 (ip), vehicle: saline with Tween-80, evaluated on day 30): 132 % of control
T/C (dose: 200.0 mg/kg/injection, schedule: Q01DX009 (ip), vehicle: saline with Tween-80, evaluated on day 20): 140 % of control [5 of 6 alive]
T/C (dose: 200.0 mg/kg/injection, schedule: Q01DX009 (ip), vehicle: saline with Tween-80, evaluated on day 30): 135 % of control
survivor count [11]: 0 of 6

CC(O[Si](C)(C)C(C)(C)C)C(=O)Sc1ccccn1 (stereo not drawn)
survivor count [4]: 3 of 6

CC(C)c1nc(N)nc(N)n1
survivor count (dose: 100.0 mg/kg/injection, schedule: Q01DX009 (ip), vehicle: saline): 3 of 6

O=[N+]([O-])c1ccc(O)c(/C=N\NS(=O)(=O)c2ccc(Cl)cc2)c1
survivor count [8]: 0 of 6

CCC1(C2OC(C3OC(O)(CO)C(C)CC3C)CC2C)CCC(C2(C)CCC3(CC(O)C(C)C(C(C)C(OC)C(C)C(=O)O)O3)O2)O1 (stereo not drawn)
survivor count (dose: 12.5 mg/kg/injection, schedule: Q01DX005 (ip), vehicle: saline with Tween-80): 2 of 5 and 3 of 6
survivor count [5]: 0 of 5 and 1 of 6
survivor count [6]: 0 of 5
survivor count [7]: 0 of 5
survivor count [8]: 0 of 5

Cn1nc(N)c2ncc(-c3ccc(Cl)cc3)nc21
survivor count [3]: 4 of 6

O=C(c1cccnc1)c1cc(-c2ccccn2)c(=O)n2ccccc12
T/C [2]: 125 and 144 % of control

Clc1ccc2c(NCCC3CCCN4CCCCC34)ccnc2c1 (stereo not drawn)
survivor count [9]: 2 of 6
survivor count [10]: 0 of 6

COC(=O)Cc1nc2c(=O)[nH]c(N)nc2[nH]c1=O
survivor count [9]: 4 of 6
survivor count [10]: 3 of 6

CCc1cnc2ccccc2c1/C=C/c1ccc(N(C)C)cc1
survivor count [11]: 5 of 6

O=c1c(Cl)cc(Cl)cn1S(=O)(=O)c1ccc([N+](=O)[O-])cc1
T/C [11]: 128 % of control

F[B-](F)(F)F
T/C (dose: 100.0 mg/kg/injection, schedule: Q01DX009 (ip), vehicle: gum acacia): 129 % of control

CC(=O)NC(CCc1ccc(Cl)c(Cl)c1)c1cccc(O)c(=O)c1 (stereo not drawn)
T/C (dose: 50.0 mg/kg/injection, schedule: Q01DX009 (ip), vehicle: Klucel (hydroxypropylcellulose) (HPC)): 125, 130, 141 % of control
survivor count (dose: 100.0 mg/kg/injection, schedule: Q01DX009 (ip), vehicle: Klucel (hydroxypropylcellulose) (HPC)): 6 of 6
survivor count (dose: 200.0 mg/kg/injection, schedule: Q01DX009 (ip), vehicle: Klucel (hydroxypropylcellulose) (HPC)): 6 of 6

CCOC(=O)c1c(C(=O)OCC)c(C)n(/N=N/n2c(C)c(C(=O)OCC)c(C(=O)OCC)c2C)c1C
survivor count [10]: 5 of 5

C=CC1CCC[S+]1CC(=O)C(Cl)(Cl)Cl (stereo not drawn)
survivor count (dose: 400.0 mg/kg/injection, schedule: Q01DX001 (ip), vehicle: saline with Tween-80): 0 of 6
